Among the data in paper PMC4153671 are binding values, retold here.

Protein sequences, listed by entry. Tags and fused reporters are not part of them.
UniProt P17918: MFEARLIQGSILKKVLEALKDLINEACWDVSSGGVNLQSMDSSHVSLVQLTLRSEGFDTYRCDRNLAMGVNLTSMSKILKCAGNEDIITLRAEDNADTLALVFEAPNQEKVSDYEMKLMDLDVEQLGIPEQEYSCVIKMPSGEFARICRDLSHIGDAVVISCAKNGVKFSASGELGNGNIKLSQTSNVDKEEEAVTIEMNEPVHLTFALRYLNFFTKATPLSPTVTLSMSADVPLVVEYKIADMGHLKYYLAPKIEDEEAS

No constants are given. Whether binding was seen depends on the method and setting. In cells and extracts the contact can be indirect. Some entries that bind do so weakly or less than the wild type.

The target in experiment [1] is Cdc45, endogenous in mouse cortical neurons (mouse (endogenous in cortical neurons)) (UniProt Q9Z1X9). In words: co-IP; formaldehyde cross-linked, sonicated nucleoprotein (DNA/protein) fragments of neurons treated with 200 µM MPP^+ for 12 h; precipitated with anti-Cdc45, mouse anti-p49 or anti-DNA pol-β antibody.
Experiment [2] concerns the target T1, p49 subunit of DNA primase, endogenous in mouse cortical neurons (mouse (endogenous in cortical neurons)) (UniProt P20664).
T1 sequence: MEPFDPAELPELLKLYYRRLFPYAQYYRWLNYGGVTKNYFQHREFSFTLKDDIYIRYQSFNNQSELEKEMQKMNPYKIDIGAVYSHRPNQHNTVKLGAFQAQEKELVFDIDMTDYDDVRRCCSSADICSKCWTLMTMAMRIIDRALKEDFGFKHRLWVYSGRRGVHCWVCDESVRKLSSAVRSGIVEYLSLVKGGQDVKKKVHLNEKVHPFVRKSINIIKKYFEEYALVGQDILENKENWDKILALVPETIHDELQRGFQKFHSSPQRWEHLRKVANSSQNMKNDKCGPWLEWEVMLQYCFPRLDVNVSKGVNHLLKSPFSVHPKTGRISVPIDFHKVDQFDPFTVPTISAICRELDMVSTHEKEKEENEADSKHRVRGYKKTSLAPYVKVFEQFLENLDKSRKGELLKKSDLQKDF
The experiment is described as above.

In the case of “proliferating cell nuclear antigen (PCNA), endogenous in mouse cortical neurons (from UniProt P17918 1-261)”, the binding entry in experiment [1] and in experiment [2] was “binds” in each case.
